For 103 sequences, z-score results are on record in PubChem BioAssay AID1347423 (Functional Genomics Laboratory (NCATS/FGL), 2020).

Screen size: about 52,000 sequences; about 210 (0.4%) were called active.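 How the source made its calls: active means gene whose silencing raises cell survival under the drug, median off-target-corrected z-score across its silencing RNAs 2 or more; inactive means the rest.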 The list shows a part of the results.

This assay is described as follows: Resistance to Poly (ADP-Ribose) Polymerase inhibitor: Gene Identification via Genome-wide siRNA Screen. Particulars: mouse BRCA2 R2336H ES cells, olaparib, CellTiter-Glo viability; hits give high values. The essentials:
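Genome-wide siRNA screen (3 siRNAs/gene, 20 nM) in mouse ES cells carrying hypomorphic BRCA2 R2336H; olaparib 500 nM added 48 h post-transfection, CellTiter-Glo viability 72 h later. Normalized to plate-median negative control; MAD z-scores, gene median, seed-adjusted.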
(In general: ATP-based viability assays read luminescence as a measure of living cells.)
For the sequence “CCAAGUCUGAUCUUUUGUATT against 4932416N17Rik”, the z-score was inactive: 0.0137.

On to “CCAUGAUGAUAAUCUGAAUTT against B930090D16Rik”, for which the z-score was inactive: 0.709.

On to “GGACUUACUCUCUCCGUGUTT against A530081L18Rik”, for which the z-score is inactive: 0.622.

In the case of GGUCUACGUUAUUAUUACCTT against Etsrp71, the z-score is inactive: 1.02.

On to CGGAGUAGCGAUUAUGGUGTT against Art5, for which the z-score is inactive: 0.796.

For the sequence GGCAAUUCUUAGGACAAGUTT against LOC545471, the z-score was inactive: 0.654.

Turning to GACCUUCGUUAGCAUUACGTT against Pfn1, the z-score is inactive: -1.01.

In the case of “GCUAGGUAUCUAAGGAUAUTT against A530089I17Rik”, the z-score was inactive: -1.19.

For “GCCAGUGGUAAAAUUGUUATT against 1810073G14Rik”, the z-score was inactive: -1.72.

Regarding GCUCAUCUAAGAGGAAUGATT against Jtb, the z-score was inactive: -1.1.

For CCUAUCAAAUUAAAUGCGCTT against Ly64, the z-score was inactive: 0.658.

As for “GGAGCUUUUUUAGUGAUCUTT against D430004I08Rik”, the z-score is inactive: -0.576.

For GCAACAAUAAAUCGUACAGTT against Nupr1, the z-score was inactive: 0.764.

In the case of GGCUAUGCAAGUGGAGAGCTT against Nfat5, the z-score is inactive: 0.182.

Consider GCCUAUGACUACCUCGAGUTT against Rhob, for which the z-score was inactive: -0.366.

In the case of GCAAUUCCUCUUUUAGUCCTT against Spag6, the z-score is inactive: 0.602.

For “GGGAUGAAGUGUUCCAUCCTT against 4932418E24Rik”, the z-score was inactive: -0.31.

In the case of “GGGUGAGUCCUAAAAAAAATT against 2610205E22Rik”, the z-score was inactive: 0.182.

Regarding CCCUGGAAAUUAGAUAACATT against Aldob, the z-score is inactive: -0.761.

As for GGUGGUGGGUCCAAUUUUUTT against Hn1, the z-score is inactive: 2.32.

Turning to GGAGGUCCAGGAUUUUAUATT against AI326477, the z-score is inactive: 0.234.

Regarding GGAGAGGAACUCAGAACCATT against Lrmp, the z-score was inactive: -0.0887.

As to GGAUUUUCUAAAAAGACACTT against Slc23a1, the z-score is inactive: 0.707.

On to GGUUAUGUGGAUGAAAGAUTT against Mybpc2, for which the z-score is inactive: -1.7.

With “GGCUGGUGUAAUCGAAACATT against 2810439F02Rik”, the z-score is inactive: -0.0291.

In the case of CCCUAGACUUGAGAGUUUUTT against Eif2s1, the z-score is inactive: -1.99.

Turning to GAUCAAUGUGAAGGACAUCTT against Cyp2c50, the z-score was inactive: 0.471.

With GGAAUUGGCAUGAACGAACTT against Psmd9, the z-score is inactive: -0.573.

Regarding GGGCUAGAUAUUCCAUGCATT against Olfr585, the z-score is inactive: -0.0783.

On to GGAUGCUCUGAAGAGACAUTT against Olfr493, for which the z-score was inactive: 2.28.

As to GGAGAUCAACAGGAUUUUGTT against Gna15, the z-score was inactive: 0.235.

In the case of GGAACACCCGGAUUACAAGTT against Sox1, the z-score was inactive: -0.762.

Consider CGGAAUCAUACAUUGGUUCTT against Zfp217, for which the z-score is inactive: 0.608.

On to “CCACAGAACAGCCAUCAUGTT against 4930532L20Rik”, for which the z-score was inactive: -2.18.

For GGUCUUCUUCGUGUUCAUCTT against Olfr281, the z-score is inactive: -0.629.

Take CCUACGCCAAGCAGUAUGATT against Mcm3: the z-score is inactive: -2.51.

Regarding “GGUUUCCUUUGUCUGUUUUTT against 9530091C08Rik”, the z-score is inactive: 0.446.

As for GGAUGAUAGCGCAAAAGAUTT against Tparl, the z-score was inactive: 0.0118.

As to CCUAAUAGUACCAACAAAATT against Nxf2, the z-score is inactive: 0.732.

“GGAGCUUACCAAGCACUACTT against 6720430O15”: the z-score was inactive: -0.153.

With “GGUGCUAAAAAUGAGCCUUTT against 2900073H19Rik”, the z-score is inactive: -1.71.

For the sequence “CGGACCAUUAUGAGUCAUUTT against 1500011K16Rik”, the z-score is inactive: 0.576.

On to GGCUAUCUACCAUUAUAUGTT against Ifit2, for which the z-score was inactive: -0.15.

On to GGUGCUUUUGCUUAGUGAUTT against Impg2, for which the z-score is inactive: 0.123.

For GGAGCCCUGUGUCUUGAGUTT against Ccl19, the z-score was inactive: 0.242.

GGUCUAUGUACUGUCCUGATT against Otop2: the z-score is inactive: -1.09.

As to GGGAACUGACAAAUGGAAGTT against Samsn1, the z-score was inactive: 2.56.

For the sequence GGAUCUAGGAGCUGAUUAUTT against Nrbf1, the z-score was inactive: -0.203.

On to GGUCGACAGUUAAAAUGAUTT against Bpil2, for which the z-score was inactive: -1.23.

In the case of CCCACAAGGUUAAGAUAUATT against Col14a1, the z-score was inactive: 0.22.

Regarding “GGAGAAUGCCCUGAUAUAGTT against 4933439A12Rik”, the z-score is inactive: -0.68.

Turning to GCGAUUUGACAACGAGACCTT against Bmp7, the z-score was inactive: 1.79.

“GGAGAUGAAGUUCCAAAAGTT against 2310061N23Rik”: the z-score was inactive: -2.38.

For the sequence CGUUAGUGACAUGCUCAUGTT against Olfr517, the z-score is inactive: -0.156.

Take “GGCUUCUUGUCCAUGCAAATT against C330016O10Rik”: the z-score is inactive: 1.92.

For GGAGAUGAGAAGAUGGGCGTT against Ppp1r8, the z-score is inactive: -0.341.

With GCGGGCUUUGCUGAGAUUUTT against Hkr3, the z-score was inactive: -1.36.

Consider GGUUUUAAUGGUACGAUUUTT against Nr1d2, for which the z-score is inactive: 0.451.

As to GCGAUGUAAUUACAAACCUTT against LOC378878, the z-score was inactive: -0.9.

Consider GGUUACUUGAGUGAAUAAUTT against Asb12, for which the z-score is inactive: -1.94.

As for GGCUACAAUAGCUGUGGUATT against Magea4, the z-score was inactive: -1.43.

Consider “GGUUAGGGUGCGUGUUACUTT against 2310033P09Rik”, for which the z-score was inactive: 0.204.

As for GCUGAUCUAACCAACAGCATT against Mark2, the z-score was inactive: 1.1.

In the case of UGCAAUCCGGAUCAAACGUTT against Cebpb, the z-score is inactive: -1.09.

Take GGAUGAGGAUGUGACCAAGTT against Gpr73l1: the z-score was inactive: 0.868.

Regarding GGCUUAUACGCUCCAUAUUTT against Gk-rs1, the z-score is inactive: -0.0164.

As to CGCCUCACGAUUUUGAUGATT against Col4a3bp, the z-score was inactive: -0.639.

Take GGGCUGAUUGACAAGUACUTT against Aldrl6: the z-score was inactive: -1.07.

With GGAAAAAGCUCAAAGGCGATT against Gap43, the z-score was inactive: -0.387.

Turning to “GGACCACAAAGCAGAAAAUTT against B230308G19Rik”, the z-score was inactive: 1.04.

Regarding GGCAGGAAUCUAUAUUAAUTT against Slc17a3, the z-score was inactive: 0.656.

Regarding GGCUGAAUUUGAUAAAACCTT against Oxr1, the z-score was inactive: 0.261.

Consider UGGUUCUACAGCAUUUGUGTT against Olfr954, for which the z-score was inactive: -1.07.

In the case of CCCGUCUCCUAAUUUUAACTT against Fgf17, the z-score is inactive: 0.147.

As for GGCUGGAGUAGAAAAGGGATT against Mapbpip, the z-score was inactive: -0.258.

CCUCCGAAUUGCCCUUCUGTT against Gtf2h4: the z-score was inactive: -1.05.

In the case of GGAUGUUCAACCUAAACGATT against Ferd3l, the z-score is inactive: 1.53.

“GGCCUUGGAGUAGCUUUGATT against 2810417D08Rik”: the z-score was inactive: -2.26.

For CGUGUACCAGCUACCUAAGTT against Phc2, the z-score was inactive: -0.83.

Turning to GCUAACAGUGGGUUAUUUATT against Tgfb2, the z-score was inactive: 1.06.

Regarding “GGAAGAUUCCAAAACUAGATT against 9430097H08Rik”, the z-score is inactive: -0.0319.

On to GGAAAGUCCUUCAUCAGCATT against AU016693, for which the z-score was inactive: -0.312.

Consider GGAUUUUUUUUCCAGAAGCTT against Apln, for which the z-score was inactive: 0.394.

Take CCUGUUUUCCGACUUGUUGTT against Il4ra: the z-score was inactive: -0.55.

In the case of GGGAGAAAAUCAAAGUAAUTT against Trim13, the z-score was inactive: -2.61.

In the case of “GGGACAGAUGCUUUUGUACTT against 1700072E05Rik”, the z-score was inactive: 0.757.

For GCUGAACGACAAUAAGGGCTT against Ltbp1, the z-score was inactive: 0.37.

Turning to GGAAUGAAGUUCACAAUAATT against Ide, the z-score is inactive: 0.457.

Turning to “CGUGAUCGAUGGGAAGAAUTT against 2900041A09Rik”, the z-score is inactive: 0.39.

Consider GCUACUUGCUCAUACAAAGTT against Rag2, for which the z-score is inactive: -0.908.

Turning to GCAAGCAAUAGAGGAACCUTT against Rnf38, the z-score was inactive: -2.39.

With GGAUCAACAGAGGUUGGCATT against Aldh1a7, the z-score was inactive: 0.328.

Consider “GCUUGUAACCUAGCAGCUGTT against 6330530A05Rik”, for which the z-score is inactive: 1.03.

Consider GGUUGUGUUUUGAUAGGAATT against Slfn5, for which the z-score is inactive: -0.268.

With CGGUUAAAAGCACUGCUCGTT against Tmc1, the z-score is inactive: 1.04.

AGAAACUGUUGGGUGAAAATT against Olfr329: the z-score was inactive: 0.47.

As for GUUCAAGCAGAGGCAGACUTT against Pde6h, the z-score is inactive: 1.35.

On to CCUAAAAGACUUUGGAGACTT against Arg2, for which the z-score was inactive: -0.481.

As to GGCAUCUCCCACAUUAGAGTT against Sell, the z-score is inactive: 0.538.

Consider “GCUGUGUGCUAUUUCCCACTT against 2810417J12Rik”, for which the z-score is inactive: 2.12.

For the sequence “GGAUCGGCUAGCUUUGAGCTT against 1810026J23Rik”, the z-score is inactive: -0.17.

For “GGAGUCUGCUGGUUUAGUGTT against 1110001J03Rik”, the z-score was inactive: 1.16.

GGCAAAAGACUGGUUUUGUTT against Nr2f2: the z-score is inactive: 1.01.
